Counter-ions that a name gives are not always drawn.
Test system: mRNA expressed from the genes (A) to (D) in rat liver
Assay: Behavior of genes (mRNA expression level, oligo-DNA microarray) in rat liver after 28-day oral administration
Format: in vivo
Conditions: oral once daily 28 days
Procedure: A test solution was prepared by dissolving each of the carcinogens and the non-carcinogens shown in Tables 2 to 6 in the corresponding solvent shown in Tables 2 to 6. Each of the thus prepared test solutions and the solvents used for the preparation was administered by oral gavage to rats in each group. As the rats, male rats (F344 SPF rats) at 5 weeks of age obtained from Charles River Laboratories Japan, Inc. were used. The animals were divided into groups, each containing four individuals. The volume of the solvent administered to the vehicle control group was set to the same volume as that of the test solution administered to the carcinogen administration group or the non-carcinogen administration group. The administration of the test solution or the solvent was performed once daily for 28 days. Apiece was excised from the liver of each of the rats after a lapse of 28 days from the initiation of the administration, and the total RNA was extracted and purified.
The expression level of mRNA was compared between each of the chemical substance administration groups and the corresponding vehicle control group, and genes that satisfy the requirements described in (A) to (D) were selected, respectively.
The case where the expression level of mRNA in the carcinogen administration group or the non-carcinogen administration group is 1.5 times or more or 1/1.5 or less of the expression level of the corresponding mRNA expressed in the control group was determined to be significant. In this connection, the determination as to whether or not the change is significant was performed by taking into consideration the direction of increase or decrease in the expression level. In the case where the direction of increase or decrease is different as compared with the case where another carcinogen was administered, the change was determined to be not significant.

[1] = (C), Unigene Rn.120914, defined direction +

## CN(C)CCN(Cc1cccs1)c1ccccn1 [TS053, Methapyrilene HCl]
(A), Unigene Rn.144554, defined direction +
  Behavior of gene caused by administration of chemical substance, Gene No. 4846: +
(A), Unigene Rn.167075, defined direction +, significant = 1.5 times or more or 1/1.5 or less of control
  Behavior of gene caused by administration of chemical substance, Gene No. 4218: +
(A), Unigene Rn.167075, defined direction −
  Behavior of gene caused by administration of chemical substance, Gene No. 2026: +
(A), Unigene Rn.5834, defined direction +
  Behavior of gene caused by administration of chemical substance, Gene No. 6182: +
(A), Unigene Rn.9836, defined direction +
  Behavior of gene caused by administration of chemical substance, Gene No. 5600: +
(B), Unigene Rn.1430, defined direction −
  Behavior of gene caused by administration of chemical substance, Gene No. 1494: +
(B), Unigene Rn.19329, defined direction +
  Behavior of gene caused by administration of chemical substance, Gene No. 2045: −
(B), Unigene Rn.21240, defined direction +
  Behavior of gene caused by administration of chemical substance, Gene No. 2203: −
(C), Unigene Rn.106184, defined direction +
  Behavior of gene caused by administration of chemical substance, Gene No. 533: +
(C), Unigene Rn.108075, defined direction −
  Behavior of gene caused by administration of chemical substance, Gene No. 725: −
(C), Unigene Rn.11766, defined direction +
  Behavior of gene caused by administration of chemical substance, Gene No. 1163: −
(C), Unigene Rn.118529, defined direction −
  Behavior of gene caused by administration of chemical substance, Gene No. 4973: +
(C), Unigene Rn.119024, defined direction −
  Behavior of gene caused by administration of chemical substance, Gene No. 4095: +
[1]
  Behavior of gene caused by administration of chemical substance, Gene No. 1334: −
  Behavior of gene caused by administration of chemical substance, Gene No. 6620: −
(C), Unigene Rn.123063, defined direction −
  Behavior of gene caused by administration of chemical substance, Gene No. 6303: +
(C), Unigene Rn.143213, defined direction −
  Behavior of gene caused by administration of chemical substance, Gene No. 5878: +
(C), Unigene Rn.144946, defined direction −
  Behavior of gene caused by administration of chemical substance, Gene No. 1131: −
(C), Unigene Rn.14744, defined direction −
  Behavior of gene caused by administration of chemical substance, Gene No. 1562: +
(C), Unigene Rn.1647, defined direction −
  Behavior of gene caused by administration of chemical substance, Gene No. 1741: +
(C), Unigene Rn.164817, defined direction +
  Behavior of gene caused by administration of chemical substance, Gene No. 893: +
(C), Unigene Rn.167685, defined direction −
  Behavior of gene caused by administration of chemical substance, Gene No. 6026: +
(C), Unigene Rn.185941, defined direction −
  Behavior of gene caused by administration of chemical substance, Gene No. 154: +
(C), Unigene Rn.18728, defined direction −
  Behavior of gene caused by administration of chemical substance, Gene No. 1993: +
(C), Unigene Rn.201760, defined direction +
  Behavior of gene caused by administration of chemical substance, Gene No. 813: −
(C), Unigene Rn.23969, defined direction +
  Behavior of gene caused by administration of chemical substance, Gene No. 2494: +
(C), Unigene Rn.24561, defined direction −
  Behavior of gene caused by administration of chemical substance, Gene No. 2546: +
(C), Unigene Rn.43232, defined direction −
  Behavior of gene caused by administration of chemical substance, Gene No. 3776: +
(C), Unigene Rn.4620, defined direction +
  Behavior of gene caused by administration of chemical substance, Gene No. 3929: −
(C), Unigene Rn.9757, defined direction +
  Behavior of gene caused by administration of chemical substance, Gene No. 1119: +
(C), Unigene Rn.9779, defined direction +
  Behavior of gene caused by administration of chemical substance, Gene No. 6742: −
(C), Unigene Rn.9862, defined direction −
  Behavior of gene caused by administration of chemical substance, Gene No. 5634: +
(D), Unigene Rn.9939, defined direction −
  Behavior of gene caused by administration of chemical substance, Gene No. 5726: −
